Source: PMC8771851
No constants are given. Whether binding was seen depends on the method and setting. Binding seen in cells or lysates may run through a third protein. Some entries that bind do so weakly or less than the wild type. For part of these data: Sequences can lack the tags named with a protein.

Sequences of proteins named here, by UniProt entry; tags and fusion partners are left off.
UniProt Q9Y6K9, whole entry: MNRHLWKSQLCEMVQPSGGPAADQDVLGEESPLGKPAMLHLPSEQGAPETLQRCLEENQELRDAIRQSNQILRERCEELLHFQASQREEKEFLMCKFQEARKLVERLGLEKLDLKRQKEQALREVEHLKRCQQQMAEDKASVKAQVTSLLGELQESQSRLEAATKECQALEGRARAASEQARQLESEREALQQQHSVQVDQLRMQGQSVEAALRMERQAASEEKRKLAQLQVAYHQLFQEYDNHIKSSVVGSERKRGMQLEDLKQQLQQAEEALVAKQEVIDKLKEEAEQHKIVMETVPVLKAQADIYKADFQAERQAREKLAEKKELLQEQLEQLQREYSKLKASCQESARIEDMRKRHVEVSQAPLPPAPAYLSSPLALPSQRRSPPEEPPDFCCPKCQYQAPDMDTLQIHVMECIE

Legend:
[1] = biological target: Flag-VRK2 (vaccinia-related kinase 2) (human) (UniProt Q86Y07)
[2] = biological target: GST-VRK2 fusion protein (human) (UniProt Q86Y07); assay: pull-down; 10 μg GST-VRK2 fusion protein incubated with lysate of pancreatic cancer cells overnight at 4°C, then glutathione-Sepharose 4 h at 4°C; western blot; only the target purified

binding [1]	binding [2]	Molecule
no binding	–	IKKγ (from UniProt Q9Y6K9 1-419)
binds	–	HA-IKKβ (enzyme, UniProt O14920 1-756) MSWSPSLTTQTCGAWEMKERLGTGGFGNVIRWHNQETGEQIAIKQCRQELSPRNRERWCLEIQIMRRLTHPNVVAARDVPEGMQNLAPNDLPLLAMEYCQGGDLRKYLNQFENCCGLREGAILTLLSDIASALRYLHENRIIHRDLKPENIVLQQGEQRLIHKIIDLGYAKELDQGSLCTSFVGTLQYLAPELLEQQKYTVTVDYWSFGTLAFECITGFRPFLPNWQPVQWHSKVRQKSEVDIVVSEDLNGTVKFSSSLPYPNNLNSVLAERLEKWLQLMLMWHPRQRGTDPTYGPNGCFKALDDILNLKLVHILNMVTGTIHTYPVTEDESLQSLKARIQQDTGIPEEDQELLQEAGLALIPDKPATQCISDGKLNEGHTLDMDLVFLFDNSKITYETQISPRPQPESVSCILQEPKRNLAFFQLRKVWGQVWHSIQTLKEDCNRLQQGQRAAMMNLLRNNSCLSKMKNSMASMSQQLKAKLDFFKTSIQIDLEKYSEQTEFGITSDKLLLAWREMEQAVELCGRENEVKLLVERMMALQTDIVDLQRSPMGRKQGGTLDDLEEQARELYRRLREKPRDQRTEGDSQEMVRLLLQAIQSFEKKVRVIYTQLSKTVVCKQKALELLPKVEEVVSLMNEDEKTVVRLQEKRQKELWNLLKIACSKVRGPVSGSPDSMNASRLSQPGQLMSQPSTASNSLPEPAKKSEELVAEAHNLCTLLENAIQDTVREQDQSFTALDWSWLQTEEEEHSCLEQAS
–	binds	endogenously expressed IKKβ (enzyme, UniProt O14920 1-756) MSWSPSLTTQTCGAWEMKERLGTGGFGNVIRWHNQETGEQIAIKQCRQELSPRNRERWCLEIQIMRRLTHPNVVAARDVPEGMQNLAPNDLPLLAMEYCQGGDLRKYLNQFENCCGLREGAILTLLSDIASALRYLHENRIIHRDLKPENIVLQQGEQRLIHKIIDLGYAKELDQGSLCTSFVGTLQYLAPELLEQQKYTVTVDYWSFGTLAFECITGFRPFLPNWQPVQWHSKVRQKSEVDIVVSEDLNGTVKFSSSLPYPNNLNSVLAERLEKWLQLMLMWHPRQRGTDPTYGPNGCFKALDDILNLKLVHILNMVTGTIHTYPVTEDESLQSLKARIQQDTGIPEEDQELLQEAGLALIPDKPATQCISDGKLNEGHTLDMDLVFLFDNSKITYETQISPRPQPESVSCILQEPKRNLAFFQLRKVWGQVWHSIQTLKEDCNRLQQGQRAAMMNLLRNNSCLSKMKNSMASMSQQLKAKLDFFKTSIQIDLEKYSEQTEFGITSDKLLLAWREMEQAVELCGRENEVKLLVERMMALQTDIVDLQRSPMGRKQGGTLDDLEEQARELYRRLREKPRDQRTEGDSQEMVRLLLQAIQSFEKKVRVIYTQLSKTVVCKQKALELLPKVEEVVSLMNEDEKTVVRLQEKRQKELWNLLKIACSKVRGPVSGSPDSMNASRLSQPGQLMSQPSTASNSLPEPAKKSEELVAEAHNLCTLLENAIQDTVREQDQSFTALDWSWLQTEEEEHSCLEQAS
